The record followed here is PMC11191317, “PNSC928, a plant-derived compound, specifically disrupts CtBP2-p300 interaction and reduces inflammation in mice with acute respiratory distress syndrome” (Biology Direct, 2024).

Protein sequences, listed by entry. Tags and fused reporters are not part of them. Lines headed by an entry give the natural chain unless they say otherwise; changes in a name come on top. Residues count along the entry.
UniProt P56546: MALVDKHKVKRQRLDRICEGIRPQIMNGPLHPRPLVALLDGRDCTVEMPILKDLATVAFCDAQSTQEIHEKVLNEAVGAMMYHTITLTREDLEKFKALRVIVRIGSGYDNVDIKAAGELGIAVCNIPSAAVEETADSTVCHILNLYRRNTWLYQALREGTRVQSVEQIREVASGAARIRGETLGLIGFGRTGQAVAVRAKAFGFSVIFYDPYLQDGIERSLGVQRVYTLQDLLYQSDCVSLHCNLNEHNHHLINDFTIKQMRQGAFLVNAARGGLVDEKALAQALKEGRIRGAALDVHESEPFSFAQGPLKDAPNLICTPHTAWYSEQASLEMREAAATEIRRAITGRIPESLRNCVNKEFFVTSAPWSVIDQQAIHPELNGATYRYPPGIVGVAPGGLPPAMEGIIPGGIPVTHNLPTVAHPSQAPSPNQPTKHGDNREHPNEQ
UniProt B2RWS6, residues 1001-1201: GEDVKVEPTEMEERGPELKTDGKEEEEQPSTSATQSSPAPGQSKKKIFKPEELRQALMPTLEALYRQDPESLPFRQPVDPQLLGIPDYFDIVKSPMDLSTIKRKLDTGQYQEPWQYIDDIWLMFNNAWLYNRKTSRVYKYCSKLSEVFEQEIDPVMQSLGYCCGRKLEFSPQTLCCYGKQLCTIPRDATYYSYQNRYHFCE
UniProt P25799: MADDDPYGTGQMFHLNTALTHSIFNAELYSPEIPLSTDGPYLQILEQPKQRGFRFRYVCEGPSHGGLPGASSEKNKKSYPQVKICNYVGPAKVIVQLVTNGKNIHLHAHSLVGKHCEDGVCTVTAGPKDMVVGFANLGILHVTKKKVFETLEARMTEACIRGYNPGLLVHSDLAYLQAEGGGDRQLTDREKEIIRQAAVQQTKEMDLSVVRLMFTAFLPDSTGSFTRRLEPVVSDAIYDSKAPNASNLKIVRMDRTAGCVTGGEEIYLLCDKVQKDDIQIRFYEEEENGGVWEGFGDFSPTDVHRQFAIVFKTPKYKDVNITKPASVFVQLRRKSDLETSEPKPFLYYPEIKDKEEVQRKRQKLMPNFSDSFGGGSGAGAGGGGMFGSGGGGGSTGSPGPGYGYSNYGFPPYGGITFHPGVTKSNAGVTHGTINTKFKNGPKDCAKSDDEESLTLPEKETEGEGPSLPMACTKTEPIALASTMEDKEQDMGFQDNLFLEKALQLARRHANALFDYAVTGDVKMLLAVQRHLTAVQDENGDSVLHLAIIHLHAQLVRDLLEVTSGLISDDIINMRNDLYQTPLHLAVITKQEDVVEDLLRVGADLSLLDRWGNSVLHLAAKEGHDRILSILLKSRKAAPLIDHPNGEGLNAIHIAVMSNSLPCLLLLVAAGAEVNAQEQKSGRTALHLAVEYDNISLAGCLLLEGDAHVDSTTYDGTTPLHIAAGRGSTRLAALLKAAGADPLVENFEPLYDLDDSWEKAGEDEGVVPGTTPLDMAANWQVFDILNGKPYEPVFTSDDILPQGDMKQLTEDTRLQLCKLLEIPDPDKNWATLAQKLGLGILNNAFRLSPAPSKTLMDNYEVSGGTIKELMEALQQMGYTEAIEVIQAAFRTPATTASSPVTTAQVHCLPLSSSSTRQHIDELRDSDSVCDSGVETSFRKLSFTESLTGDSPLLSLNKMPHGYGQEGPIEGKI

One experiment has as its target His-CtBP2 (UniProt P56546). As to the kind of experiment: pull-down; 80 nM GST-p300^BRD and 40 nM His-CtBP2 with PNSC928 (0, 11.8, 23.6, 47.2 µM); pulldown with Ni-NTA beads; both purified.
Another experiment deals with GST-p300^BRD (UniProt B2RWS6). As to the kind of experiment: pull-down; 80 nM GST-p300^BRD and 40 nM His-CtBP2 with PNSC928 (0, 11.8, 23.6, 47.2 µM); pulldown with GST beads; both purified.
Experiment [1] has as its target C-terminal binding protein 2 (CtBP2), endogenous mouse (mouse (endogenous in C57BL/6 lung and MPAEpiC cells)) (UniProt P56546). The experiment can be described thus: co-IP; nuclear fractions of lung tissue from control and LPS-challenged ARDS mice; anti-CtBP2 antibody, protein A agarose beads, 4 °C; washes with 150 mM NaCl, 1% Triton X-100; Western blot. On the technique in general: In western blotting, separated proteins are transferred to a membrane and probed.

The target of experiment [2] is CtBP2, Flag- or Myc-tagged, transfected in MPAEpiC cells (UniProt P56546). As to the kind of experiment: co-IP; combinations of plasmids cotransfected into MPAEpiC cells, 48 h; lysates immunoprecipitated with anti-Flag agarose; blots with anti-Flag and anti-Myc.

These are yes or no findings as the source states them, for the method shown. For some of these results: In cells and extracts the contact can be indirect. Some entries that bind do so weakly or less than the wild type.

In the case of “GST-p300^BRD (from UniProt B2RWS6 1001-1201) (domain or fragment)”, in the experiment with His-CtBP2, the binding result is reported as “binds”. As for His-CtBP2 (from UniProt P56546 1-445), in the experiment with GST-p300^BRD, the binding result is reported as “binds”. On to “nuclear factor kappa B (NF-κB), subunits p50 and p65, endogenous mouse (from UniProt P25799 1-431; Q04207 1-549) (complex)”, for which, in experiment [1], the binding result is “binds”.

As for “p300 region R2 (1001–1201 aa), Flag- or Myc-tagged, transfected in MPAEpiC cells (from UniProt B2RWS6 1001-1201) (domain or fragment)”, in experiment [2], the binding result is given as “binds”.
